# Test results taken from article PMC6436931, “Activation of the Endonuclease that Defines mRNA 3′ Ends Requires Incorporation into an 8-Subunit Core Cleavage and Polyadenylation Factor Complex” (Molecular Cell, 2019).
# Protein sequences, listed by entry. Tags and fused reporters are not part of them. Lines headed by an entry give the natural chain unless they say otherwise; changes in a name come on top.
# UniProt Q06632: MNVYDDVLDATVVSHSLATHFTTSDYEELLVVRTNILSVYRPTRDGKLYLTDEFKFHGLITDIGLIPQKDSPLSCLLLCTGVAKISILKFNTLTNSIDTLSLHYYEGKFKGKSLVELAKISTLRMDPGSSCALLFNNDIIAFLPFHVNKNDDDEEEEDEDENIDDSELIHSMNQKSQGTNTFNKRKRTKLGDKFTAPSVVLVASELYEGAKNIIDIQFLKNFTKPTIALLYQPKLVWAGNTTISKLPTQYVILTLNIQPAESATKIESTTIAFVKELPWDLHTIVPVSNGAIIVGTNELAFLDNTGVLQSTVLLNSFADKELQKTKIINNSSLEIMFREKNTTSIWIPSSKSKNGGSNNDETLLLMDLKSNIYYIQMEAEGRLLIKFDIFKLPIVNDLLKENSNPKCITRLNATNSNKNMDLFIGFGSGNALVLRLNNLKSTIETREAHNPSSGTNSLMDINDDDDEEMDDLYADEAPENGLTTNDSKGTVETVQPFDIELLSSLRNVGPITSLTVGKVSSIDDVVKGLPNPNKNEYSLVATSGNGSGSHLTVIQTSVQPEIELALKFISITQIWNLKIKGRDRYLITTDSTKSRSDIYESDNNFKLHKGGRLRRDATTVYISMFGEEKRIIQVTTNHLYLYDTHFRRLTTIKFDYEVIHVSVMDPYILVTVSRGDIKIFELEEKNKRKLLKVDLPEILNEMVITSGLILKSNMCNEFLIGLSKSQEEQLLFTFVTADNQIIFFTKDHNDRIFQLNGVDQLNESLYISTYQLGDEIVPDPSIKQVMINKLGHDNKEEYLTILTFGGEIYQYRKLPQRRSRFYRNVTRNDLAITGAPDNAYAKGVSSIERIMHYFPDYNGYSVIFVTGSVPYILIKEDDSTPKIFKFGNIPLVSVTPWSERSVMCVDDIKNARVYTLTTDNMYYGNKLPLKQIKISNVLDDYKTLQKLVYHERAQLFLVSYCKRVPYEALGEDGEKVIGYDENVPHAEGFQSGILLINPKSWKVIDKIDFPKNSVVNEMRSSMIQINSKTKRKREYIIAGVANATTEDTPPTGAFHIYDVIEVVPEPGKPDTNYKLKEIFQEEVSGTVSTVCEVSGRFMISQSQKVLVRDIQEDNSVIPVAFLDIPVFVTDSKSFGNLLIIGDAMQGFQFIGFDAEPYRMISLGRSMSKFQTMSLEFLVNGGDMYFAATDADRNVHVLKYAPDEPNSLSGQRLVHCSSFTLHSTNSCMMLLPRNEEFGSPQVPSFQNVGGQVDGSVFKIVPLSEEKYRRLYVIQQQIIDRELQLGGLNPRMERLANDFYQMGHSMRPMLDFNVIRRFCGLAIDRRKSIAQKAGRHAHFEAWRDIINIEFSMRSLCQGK
# No constants are given. Whether binding was seen depends on the method and setting.
# B1: CF IB (6H-Hrp1) (protein, UniProt Q99383 1-534)
# chain: MSSDEEDFNDIYGDDKPTTTEEVKKEEEQNKAGSGTSQLDQLAALQALSSSLNKLNNPNSNNSSSNNSNQDTSSSKQDGTANDKEGSNEDTKNEKKQESATSANANANASSAGPSGLPWEQLQQTMSQFQQPSSQSPPQQQVTQTKEERSKADLSKESCKMFIGGLNWDTTEDNLREYFGKYGTVTDLKIMKDPATGRSRGFGFLSFEKPSSVDEVVKTQHILDGKVIDPKRAIPRDEQDKTGKIFVGGIGPDVRPKEFEEFFSQWGTIIDAQLMLDKDTGQSRGFGFVTYDSADAVDRVCQNKFIDFKDRKIEIKRAEPRHMQQKSSNNGGNNGGNNMNRRGGNFGNQGDFNQMYQNPMMGGYNPMMNPQAMTDYYQKMQEYYQQMQKQTGMDYTQMYQQQMQQMAMMMPGFAMPPNAMTLNQPQQDSNATQGSPAPSDSDNNKSNDVQTIGNTSNTDSGSPPLNLPNGPKGPSQYNDDHNSGYGYNRDRGDRDRNDRDRDYNHRSGGNHRRNGRGGRGGYNRRNNGYHPYNR
# Biological target: CPF_(core): Cft1-Pfs2_(-3C-SII)-Yth1_(-3C-8H)-Fip1-Pap1-Cft2-Ysh1-Mpe1 (S. cerevisiae) (UniProt Q06632)
# Test: pull-down; Strep-tagged bait proteins and complexes (100 μL at 1.5 μM) immobilised on Streptactin beads; prey CF IA, CF IB, Rna14-Rna15 or Pcf11-Clp1 (20 μL at 4.0 μM) bound 60 min at 4°C; 10 mM HEPES pH 7.9, 150 mM NaCl, 0.5 mM Mg(OAc)2, 0.05% Tween-20; SDS-PAGE, InstantBlue; both purified
binder,measurement,value
B1,binding,no binding (tested: 20 μL of prey at 4.0 μM added)
